By UniProt entry, the sequences of proteins in these tests, tags left out.
UniProt Q0JBA9, entry or part of it: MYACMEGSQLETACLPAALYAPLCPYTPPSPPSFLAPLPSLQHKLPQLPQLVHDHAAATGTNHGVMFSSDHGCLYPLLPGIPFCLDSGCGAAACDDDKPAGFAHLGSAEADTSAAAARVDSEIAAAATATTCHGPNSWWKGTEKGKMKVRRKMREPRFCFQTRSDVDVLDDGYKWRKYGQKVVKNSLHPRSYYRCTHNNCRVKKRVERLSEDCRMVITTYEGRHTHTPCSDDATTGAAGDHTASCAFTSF

This is one part of the list.
The sequences below were run against OsWRKY34 (Oryza sativa, UniProt Q0JBA9 1-250) (assay: protein-binding microarray (RPBM); PBS, 2% BSA, 51.3 ng/ul salmon testes DNA, 50 uM zinc acetate, 200 nM TF, 25 C, 1 h; high values mean tight binding). Settings: protein: recombinant; tags: N-terminal polyhistidine and DsRed monomer fusion (pET32a); label: CyDye5-dUTP incorporated in the synthesized complementary strand; 3' TTTTT single-stranded linker to array surface; dsDNA, one strand shown.
In short: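 Per-feature fluorescence intensity (arbitrary units), read on an Axon 4000B scanner, is the binding signal. Transcription factors carrying an N-terminal polyhistidine tag and DsRed fusion were expressed in E. coli BL21-CodonPlus and purified on Ni–NTA. A custom Agilent array, made double-stranded by primer extension with Cy5-dUTP and blocked with 2% BSA, was incubated with 200 nM protein in PBS, 2% BSA, salmon testes DNA and 50 µM zinc acetate at 25 °C for 1 h and then washed.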
“TCCGATTTAAGCTCTCTTGCCCATTTTTTTTTCAGAGTTTCGGAGTCACCTAGTGCAG” was tested, and the binding signal was 11900 fluorescence intensity (a.u.). With “CGCGTGATGACTCCCCATCGCGATCCCGACCGTCCGTTTCCGGAGTCACCTAGTGCAG” the binding signal was 9570 fluorescence intensity (a.u.). With “GTACTGTTTATATCTAAATTTGTCTTTTTGTTTCTCGATGCGGAGTCACCTAGTGCAG” the binding signal was 8610 fluorescence intensity (a.u.). “AAGCTTGGTCAACCCTCCAGTCCGCCGTAGACCGTAGCGCCGGAGTCACCTAGTGCAG” was tested, and the binding signal was 8820 fluorescence intensity (a.u.). “CGGCTGTGAGGTTCTTGATTTGATCTGTGGTTGTTGTTGACGGAGTCACCTAGTGCAG” was tested, and the binding signal was 8260 fluorescence intensity (a.u.). For “CTTTATAGAGGTGTTCAAACGAATTTTAGGGTGGGATCTACGGAGTCACCTAGTGCAG”, the binding signal was 8900 fluorescence intensity (a.u.). In the case of “CCGGCCTATACACTTTTGTGATAGTGAACATGCAGCTTTCCGGAGTCACCTAGTGCAG”, the binding signal was 9780 fluorescence intensity (a.u.). “GTGGTGACTTCATCAATATCAAGATATACCGTCCAGTCTTCGGAGTCACCTAGTGCAG” was tested, and the binding signal was 8580 fluorescence intensity (a.u.). For “CCAGGTCGCACGCTGATCTCCGCACCCGCCACCCGCAATGCGGAGTCACCTAGTGCAG”, the binding signal was 8370 fluorescence intensity (a.u.). In the case of “ACTTGTTCTTTTGCTAGTAGAATCACTAATTCAGTATTGTCGGAGTCACCTAGTGCAG”, the binding signal was 8320 fluorescence intensity (a.u.). “ATTTTAGGGGAGGGTTTTACTTAGCAACTTTCATCTTATTCGGAGTCACCTAGTGCAG” was tested, and the binding signal was 15800 fluorescence intensity (a.u.). In the case of “CCTCCCATTGTGTCAAATTGCCCACACACGTACGCGCCATCGGAGTCACCTAGTGCAG”, the binding signal was 8180 fluorescence intensity (a.u.). For “ATAAACATAAACTTCCAACATTTCCGTCACATCATTCTAACGGAGTCACCTAGTGCAG”, the binding signal was 8970 fluorescence intensity (a.u.). For “GACGACCCACCCCGTCGTGTCATCGCCGCGCGTGCACCAGCGGAGTCACCTAGTGCAG”, the binding signal was 8200 fluorescence intensity (a.u.). For “TTGACATAAATTTTCAACCAACCCGTTGTTTTTGTTTTACCGGAGTCACCTAGTGCAG”, the binding signal was 9250 fluorescence intensity (a.u.). For “CGCCGTCGCTCCCTGCCTCTCCACCGCGCCGTCGTCCTCGCGGAGTCACCTAGTGCAG”, the binding signal was 10300 fluorescence intensity (a.u.). “CCGACAACACCGGCTTCCCTATATATTTTAGCAACTTTATCGGAGTCACCTAGTGCAG” was tested, and the binding signal was 8950 fluorescence intensity (a.u.). For “TTTTTTGCCTTACCAACCCCAGTATTCAATTGTTCAAGTCCGGAGTCACCTAGTGCAG”, the binding signal was 9620 fluorescence intensity (a.u.). “ATAGGGTGATATATGCTCTGCTCTACCTGCATCTGACCACCGGAGTCACCTAGTGCAG” was tested, and the binding signal was 8630 fluorescence intensity (a.u.). For “GCAGACAACTCCGTCGCTGTTACTTCCTCTATGCCAAAACCGGAGTCACCTAGTGCAG”, the binding signal was 9350 fluorescence intensity (a.u.). For “TTTTGCACTATTCAACCATCTTTCTCCACTTTTGTCTTACCGGAGTCACCTAGTGCAG”, the binding signal was 10600 fluorescence intensity (a.u.). For “AAGTTCATCTCTTATTTTTCTTCCTTTGCATATTTGACCGCGGAGTCACCTAGTGCAG”, the binding signal was 9770 fluorescence intensity (a.u.). For “TCCCTCGCGAAGGTCTTGTTGTCCCCACTGATTCGCCGCTCGGAGTCACCTAGTGCAG”, the binding signal was 9360 fluorescence intensity (a.u.). For “ATCTGGGTTGGGGCTATTGGTTCACTCTCAGGGATTTGGACGGAGTCACCTAGTGCAG”, the binding signal was 15200 fluorescence intensity (a.u.). In the case of “GTAGAAGCGCCTAACTTGTCGTTTGCTGTGGCTTGGGTTTCGGAGTCACCTAGTGCAG”, the binding signal was 8690 fluorescence intensity (a.u.). For “CCGGCATTCTCCATTGGAATCATTCTGACCATACCTGAACCGGAGTCACCTAGTGCAG”, the binding signal was 9180 fluorescence intensity (a.u.). “TATTTTTTGGGGTAAAATACTTCTTATACTATATTATTTTCGGAGTCACCTAGTGCAG” was tested, and the binding signal was 9100 fluorescence intensity (a.u.). “AGTCACATTCTTTTCTTTTCTTAATTATACATCACGAATTCGGAGTCACCTAGTGCAG” was tested, and the binding signal was 8760 fluorescence intensity (a.u.). “ATCGTTCTTCCCGTGCCGCCGCCGCCGCCGCCGCTTCATCCGGAGTCACCTAGTGCAG” was tested, and the binding signal was 12600 fluorescence intensity (a.u.). For “CTCTTTTCTTTTCTCTCACACGCTTTGCCTTTTGCTGCCCCGGAGTCACCTAGTGCAG”, the binding signal was 9040 fluorescence intensity (a.u.). For “TATAGCGAAATGTCAGCCTCTATCCATCCATCTGACATAACGGAGTCACCTAGTGCAG”, the binding signal was 9690 fluorescence intensity (a.u.). With “CCAAACACTCATATAGCCAACTCTCCATCTGATTTAGCTACGGAGTCACCTAGTGCAG” the binding signal was 8490 fluorescence intensity (a.u.). In the case of “TCTTTGTTTCCCGCGTTTTGTTGGGGATTCGATTTTCGGGCGGAGTCACCTAGTGCAG”, the binding signal was 11100 fluorescence intensity (a.u.). With “GGTTAAACCCAATCAGTGTGCTACCTCACCCCAACCCGGGCGGAGTCACCTAGTGCAG” the binding signal was 8380 fluorescence intensity (a.u.). For “CTGGTCGGTTCCGCTGACCACCCGTGACTCTTACCACGACCGGAGTCACCTAGTGCAG”, the binding signal was 8880 fluorescence intensity (a.u.). With “TTGCAAATTCCTCTTTTTCTTTCTCGGCTTGTTTGGTAACCGGAGTCACCTAGTGCAG” the binding signal was 12200 fluorescence intensity (a.u.). For “ACATTTATTTAGCTCTGTTTGTATGTATGAATACATTAGTCGGAGTCACCTAGTGCAG”, the binding signal was 8090 fluorescence intensity (a.u.). With “CTTTGTAGTTGGCTTTTTTCTGATAAATTTATTTCTTCAACGGAGTCACCTAGTGCAG” the binding signal was 14300 fluorescence intensity (a.u.). With “TCGGTTCCTTTCGCGCCACTCATCAAACCAACCTGTGTCGCGGAGTCACCTAGTGCAG” the binding signal was 8060 fluorescence intensity (a.u.). With “TGCCGTTTGCTTCACTCCCACTGCTCCTCCTCCACGCGCGCGGAGTCACCTAGTGCAG” the binding signal was 9210 fluorescence intensity (a.u.). With “GGCGGCAGGGAGGTTAGGGCTTTTTCTACTTCTATACATGCGGAGTCACCTAGTGCAG” the binding signal was 14200 fluorescence intensity (a.u.). “TCACATGGATGCATACTTATCTATGTACTGTGGTATTTTCCGGAGTCACCTAGTGCAG” was tested, and the binding signal was 8050 fluorescence intensity (a.u.).

Reference: publication PMC7819943, “Rice protein-binding microarrays: a tool to detect cis-acting elements near promoter regions in rice”
